In publication PMC5733569, “Sbp1 modulates the translation of Pab1 mRNA in a poly(A)- and RGG-dependent manner” (RNA, 2018):
Results are given in words; binding and its absence hold for the method and conditions named. Where a sequence is shown, tags or fusion partners need not be part of it.

target: T1, GST-Sbp1 (S. cerevisiae) (UniProt P10080); experiment: pull-down; domain mutants of Pab1 tested for binding with Sbp1 (Supplemental Fig. S5A-H); which partner was GST-tagged and whether RNA was present is not given; both purified
T1 sequence: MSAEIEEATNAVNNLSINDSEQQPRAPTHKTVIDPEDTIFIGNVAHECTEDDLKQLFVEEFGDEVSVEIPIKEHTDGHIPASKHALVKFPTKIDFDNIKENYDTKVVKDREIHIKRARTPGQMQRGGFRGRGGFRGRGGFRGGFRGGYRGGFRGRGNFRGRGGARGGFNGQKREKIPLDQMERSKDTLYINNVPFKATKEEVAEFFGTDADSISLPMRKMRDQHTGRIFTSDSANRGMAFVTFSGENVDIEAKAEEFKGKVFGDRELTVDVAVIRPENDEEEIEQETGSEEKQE

binding, no binding:
Pab1 RRM1 domain mutant (S. cerevisiae) (domain or fragment), Pab1 RRM2 domain mutant (S. cerevisiae) (domain or fragment), Pab1 RRM3 domain mutant (S. cerevisiae) (domain or fragment), Pab1 RRM4 domain mutant (S. cerevisiae) (domain or fragment)
